No constants are given. Whether binding was seen depends on the method and setting. Binding calls can cover weak binding; strength is not graded here. Where a sequence is shown, tags or fusion partners need not be part of it.
T1: NRT1.2^loop-GST (Arabidopsis thaliana) (UniProt Q8H157)
T1 sequence: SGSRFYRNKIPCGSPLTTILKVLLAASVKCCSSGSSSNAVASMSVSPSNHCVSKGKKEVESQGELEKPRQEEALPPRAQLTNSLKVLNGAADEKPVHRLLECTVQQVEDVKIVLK

Protein sequences, listed by entry. Tags and fused reporters are not part of them. Lines headed by an entry give the natural chain unless they say otherwise; changes in a name come on top.
UniProt Q9C7T7: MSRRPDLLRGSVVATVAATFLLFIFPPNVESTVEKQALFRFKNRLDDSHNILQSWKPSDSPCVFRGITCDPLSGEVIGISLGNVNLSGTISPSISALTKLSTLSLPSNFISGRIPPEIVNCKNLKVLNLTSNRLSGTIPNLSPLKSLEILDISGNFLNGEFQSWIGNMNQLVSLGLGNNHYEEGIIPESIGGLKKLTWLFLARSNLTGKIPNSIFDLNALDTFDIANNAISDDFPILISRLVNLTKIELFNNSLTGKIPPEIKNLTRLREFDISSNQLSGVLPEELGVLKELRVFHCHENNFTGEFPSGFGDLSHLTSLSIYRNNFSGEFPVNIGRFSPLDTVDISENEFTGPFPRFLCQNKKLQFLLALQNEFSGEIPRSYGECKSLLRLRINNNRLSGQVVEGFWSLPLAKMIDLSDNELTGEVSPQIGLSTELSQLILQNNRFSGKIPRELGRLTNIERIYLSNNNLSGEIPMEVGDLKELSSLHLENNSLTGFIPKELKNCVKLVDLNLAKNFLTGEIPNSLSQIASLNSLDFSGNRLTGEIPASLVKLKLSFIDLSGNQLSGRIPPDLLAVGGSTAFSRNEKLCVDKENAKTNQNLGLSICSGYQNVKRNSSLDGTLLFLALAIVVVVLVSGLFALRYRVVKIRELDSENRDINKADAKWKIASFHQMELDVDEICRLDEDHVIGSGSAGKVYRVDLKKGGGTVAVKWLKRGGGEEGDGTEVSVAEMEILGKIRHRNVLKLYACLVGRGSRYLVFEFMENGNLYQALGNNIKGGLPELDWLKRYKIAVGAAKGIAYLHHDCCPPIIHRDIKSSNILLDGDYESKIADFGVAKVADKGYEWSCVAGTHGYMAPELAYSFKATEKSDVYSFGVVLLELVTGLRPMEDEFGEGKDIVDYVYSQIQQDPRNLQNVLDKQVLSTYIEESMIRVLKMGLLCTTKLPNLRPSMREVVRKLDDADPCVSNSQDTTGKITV
UniProt Q9FK29: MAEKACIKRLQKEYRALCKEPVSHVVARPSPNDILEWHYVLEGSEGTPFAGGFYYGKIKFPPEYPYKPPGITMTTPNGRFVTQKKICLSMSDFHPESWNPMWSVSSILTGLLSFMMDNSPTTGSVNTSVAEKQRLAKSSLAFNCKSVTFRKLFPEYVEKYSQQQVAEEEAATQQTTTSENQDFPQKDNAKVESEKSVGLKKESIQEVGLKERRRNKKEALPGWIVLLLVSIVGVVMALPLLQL
UniProt Q9SHI7: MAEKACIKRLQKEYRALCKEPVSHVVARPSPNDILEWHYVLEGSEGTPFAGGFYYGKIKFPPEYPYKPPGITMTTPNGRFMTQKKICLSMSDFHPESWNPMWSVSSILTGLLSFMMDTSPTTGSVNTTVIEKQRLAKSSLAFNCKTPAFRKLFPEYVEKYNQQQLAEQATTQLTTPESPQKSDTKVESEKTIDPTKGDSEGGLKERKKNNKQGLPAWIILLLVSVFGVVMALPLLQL


Tests used:
[1] = biological target: T1, NRT1.2^loop-GST (Arabidopsis thaliana); test: pull-down
[2] = biological target: CEPR2 kinase domain (CEPR2^KD), MbSUS fusion (Arabidopsis thaliana) (UniProt Q9C7T7); test: two-hybrid

Molecule	binding [1]	binding [2]
UBC32ΔTM-His (from UniProt Q9LSP7) (enzyme)	binds	
NRT1.2 cytosol loop region (NRT1.2^loop, 232-346 aa), MbSUS fusion (domain or fragment, UniProt Q8H157 232-346) SGSRFYRNKIPCGSPLTTILKVLLAASVKCCSSGSSSNAVASMSVSPSNHCVSKGKKEVESQGELEKPRQEEALPPRAQLTNSLKVLNGAADEKPVHRLLECTVQQVEDVKIVLK		binds

The next lines start with the values.

binding [1]	binding [2]	Molecule
binds		UBC33ΔTM-His (from UniProt Q9FK29) (enzyme)
binds		UBC34ΔTM-His (from UniProt Q9SHI7) (enzyme)

— article doi:10.1101/2020.02.18.953711 (bioRxiv, 2020)
